# In PubChem BioAssay AID588497 (NMMLSC, 2011):
# The whole screen tested about 360,000 compounds, of which about 780 (0.22%) were called active. The shares of active, inactive and inconclusive entries below differ from those in the screen. Rule as the data show it: active = inhibition above about 35% (passing the limit was not always enough); inconclusive = no clear call, values can overlap the other calls.
# Tested on: Botulinum neurotoxin type F light chain protease (Clostridium botulinum)
# Assay: BoNT/F light chain protease inhibitors, primary screen, biochemical, flow cytometry, MLPCN library (AID 588497); also: plate controls were buffer without enzyme for full effect and enzyme alone for no effect
# Settings: Multiplex microsphere protease cleavage assay, at 10 µM, active compounds read high
row,Compound,inhibition
1,O=C(Cn1c(/C=C/c2ccccc2)nc2ccccc21)Nc1ccc(F)cc1,inactive: -4.4%
2,O=C(CN1CCCC1)Nc1cccc(Cl)c1Cl,inconclusive: 13.1%
3,CN(C)c1ccc(C2C3CCCc4ccccc4C3=NN2C)cc1 (stereo not given),inconclusive: 38.1%
4,C/C(=N/NC(=O)CN1CCN(Cc2ccccc2Cl)CC1)c1cccs1,inconclusive: -2.6%
5,Clc1ccc(Nc2cc(-c3ccccc3)nc3ncnn23)cc1,inactive: -23.4%
6,COc1cccc(NC(=O)CN(C)C(=O)c2cc(-c3ccc(F)cc3)nc3ccccc23)c1,inconclusive: 4.6%
7,O=C(NCC1CCCO1)c1ccc(S(=O)(=O)Nc2ccccc2F)cc1 (stereo not given),inactive: -5.2%
8,COCc1cc(=O)[nH]c2c1c(-c1ccccc1)nn2C,inconclusive: 5%
9,O=C1CSC(=S)N1/N=C/c1cccnc1,inconclusive: 33.8%
10,COc1cc(Br)c(Br)c(Br)c1N,inconclusive: 138%
11,CC12CN3CC(C)(CN(C1)C3c1ccc([N+](=O)[O-])o1)C2 (stereo not given),inconclusive: -21.8%
12,COc1ccc(NC(=O)CNC(=O)Cc2cccc3ccccc23)c(OC)c1,inconclusive: -28.6%
13,O=C(CSCc1nc2scc(-c3cccs3)c2c(=O)[nH]1)Nc1ccccn1,inactive: -2%
14,CCn1c(CNC(=O)c2ccccc2Br)nnc1SCC(=O)NC1=NCCS1,inactive: -9.8%
15,CCOC(=O)c1cc(C#N)c(Nc2ccc(C)cc2)nc1C(F)(F)F,inconclusive: -30.2%
16,Cc1ccccc1N1CC(=O)Nc2c(oc3nc(-c4ccccc4)cc(C)c23)C1=O,inconclusive: 11.9%
17,Cc1onc(-c2ccccc2)c1CNC(=O)Nc1cccc(Cl)c1,inconclusive: 19.7%
18,CCOc1ccc(S(=O)(=O)n2cnc(C)c2)cc1,inconclusive: 19%
19,CCCCN(Cc1nc2ccccc2c(=O)[nH]1)C(=O)CN1C(=O)NC2(CCCCC2)C1=O,inactive: 2.4%
20,COC(=O)Cn1cnc2scc(-c3ccc(C)cc3)c2c1=O,inconclusive: -5.9%

row,Compound,inhibition
1,COC(=O)Cc1cccc2c(=O)c3ccccc3oc12,inconclusive: -63.9%
2,COCCNC(=O)Nc1ccc2nc(-c3cccs3)c(-c3cccs3)nc2c1,active: 41.6%
3,COc1ccc(Cn2cc(CN3CC(N(C)C)CS3(=O)=O)nn2)cc1 (stereo not given),inactive: 2.8%
4,COc1ccccc1NC(=O)CSc1ccc(-c2ccccn2)nn1,inactive: -11.2%
5,COc1ccc(COC(=O)CCc2cc(OC)c(OC)c(OC)c2)cc1F,inactive: -5.9%
6,O=C(OC1CO[C@H]2O[C@@H]1[C@H](OC(=O)c1ccccc1)[C@H]2OC(=O)c1ccccc1)c1ccccc1 (stereo not given in full),inconclusive: -53.6%
7,CCc1noc(C)c1C(=O)OCC(=O)N(CCOC)c1c(N)n(Cc2ccccc2)c(=O)[nH]c1=O,inconclusive: -7.3%
8,CCCCCCC1CC(=O)NC(=O)N1 (stereo not given),inconclusive: 148%
9,C=CCN(CC=C)CCOc1ccccc1,inactive: -1.7%
10,Cc1ccc(C)c(OCC(=O)Nc2ccc(S(=O)(=O)N3CCN(C)CC3)cc2)c1,inconclusive: -9%
11,COc1cc(CN(C2CC2)S(=O)(=O)c2ccccc2Br)cc(OC)c1,inactive: 1.2%
12,Cn1nc(C(F)(F)F)c(-c2ccccc2)c1NC(=O)CSCC(=O)O,inconclusive: -6.8%
13,OC(c1ccccc1)(c1ccc(Cl)cc1)C1CN2CCC1CC2 (stereo not given),inconclusive: 69.9%
14,O=S(=O)(NN=Cc1ccc(O)cc1O)c1cc(Cl)c(Cl)cc1Cl,inactive: 0.5%
15,COc1ccc(/C=C(/NC(=O)c2cccs2)C(=O)NC(C)(C)C)cc1OC,inconclusive: -9.8%
16,CC(C)(C)OC(=O)NCCNC(=O)c1cccs1,inconclusive: -2.7%
17,C/C(=N\N=C(N)N)c1ccccc1,inconclusive: 2.2%
18,CN(CC(=O)Nc1c(Cl)cccc1Cl)C(=O)c1cc(S(=O)(=O)N(C)C)ccc1N1CCCC1,inconclusive: 10.2%
19,O=C(NCc1ccccc1)NC(O)C(Cl)(Cl)Cl (stereo not given),inactive: -1.2%
20,NNC(=O)c1csc(-c2ccc(C(F)(F)F)cc2Cl)n1,inconclusive: 33.1%

# Part of the list above in order of heavy-atom count, rising.
row,Compound,inhibition
17,C/C(=N\N=C(N)N)c1ccccc1,inconclusive: 2.2%
9,C=CCN(CC=C)CCOc1ccccc1,inactive: -1.7%
19,O=C(NCc1ccccc1)NC(O)C(Cl)(Cl)Cl (stereo not given),inactive: -1.2%
16,CC(C)(C)OC(=O)NCCNC(=O)c1cccs1,inconclusive: -2.7%
1,COC(=O)Cc1cccc2c(=O)c3ccccc3oc12,inconclusive: -63.9%
14,O=S(=O)(NN=Cc1ccc(O)cc1O)c1cc(Cl)c(Cl)cc1Cl,inactive: 0.5%
12,Cn1nc(C(F)(F)F)c(-c2ccccc2)c1NC(=O)CSCC(=O)O,inconclusive: -6.8%
15,COc1ccc(/C=C(/NC(=O)c2cccs2)C(=O)NC(C)(C)C)cc1OC,inconclusive: -9.8%
2,COCCNC(=O)Nc1ccc2nc(-c3cccs3)c(-c3cccs3)nc2c1,active: 41.6%
10,Cc1ccc(C)c(OCC(=O)Nc2ccc(S(=O)(=O)N3CCN(C)CC3)cc2)c1,inconclusive: -9%
18,CN(CC(=O)Nc1c(Cl)cccc1Cl)C(=O)c1cc(S(=O)(=O)N(C)C)ccc1N1CCCC1,inconclusive: 10.2%
7,CCc1noc(C)c1C(=O)OCC(=O)N(CCOC)c1c(N)n(Cc2ccccc2)c(=O)[nH]c1=O,inconclusive: -7.3%

# Following part

row,Compound,inhibition
1,COc1cccc(S(=O)(=O)NCC(=O)N2CCCCCC2)c1,inconclusive: -23.2%
2,Cc1ccccc1N1C(=O)C(Cl)=C(N2CCOCC2)C1=O,inconclusive: -16.1%
3,COCCCNc1nc(CC(C)C)nc2c1nnn2Cc1ccccc1,inconclusive: 48.2%
4,COC(=O)N/N=C\c1cc2c(cc1Br)OCO2,inactive: -0.6%
5,COC(=O)c1ccc(Nc2cc(C)nc3ccccc23)cc1,inconclusive: 20.1%
6,CCCc1cc(=O)[nH]c2nnc(SCC(=O)Nc3ccc4c(c3)OCCO4)n12,inactive: 11.8%
7,COc1cc(NC(=O)c2ccccc2)c(OC)cc1NC(=O)Cc1ccc(F)cc1,inconclusive: 7.8%
8,CN(C)c1cc(-c2ccc(Cl)c(Cl)c2)oc(=O)c1Cl,inconclusive: 34.8%
9,Cc1cc(Br)ccc1N=C1NC(=O)CS1,inconclusive: -23.9%
10,CC(C)Cc1nnc(NS(=O)(=O)c2ccc([N+](=O)[O-])cc2)s1,inconclusive: 13.9%
11,CSc1ncc(Cl)c(C(=O)C(C#N)c2nc3c(C)cc(C)cc3c(=O)[nH]2)n1 (stereo not given),inactive: -2.5%
12,CCOC(=O)c1c(O)c2ccccc2oc1=O,inactive: 0.2%
13,O=C(C1CCCCC1)N1CCN(c2ccnc3cc(Cl)ccc23)CC1,inconclusive: 12.4%
14,CCCCOc1ccc(C(=O)NCC(=O)OC2CCOC2=O)cc1 (stereo not given),inconclusive: -33.3%
15,Cc1ccc(N/N=C/c2c(C)c(C#N)c(=O)n(C)c2O)cc1C,inactive: -1.8%
16,Cc1cc2oc(=O)cc(CN3CCCCC3C)c2cc1C(C)C (stereo not given),inactive: -11.4%
17,COc1ccc2ccc3cccc[n+]3c2c1,inconclusive: 17.4%
18,COC(Cn1c2c(c3cc(C)ccc31)CCCC2NCc1ccccc1)OC (stereo not given),inconclusive: -68.2%
19,Cc1ccc(/C(O)=C2/C(=O)C(=O)N(CCN3CCOCC3)C2c2cccnc2)cc1 (stereo not given),inactive: -1.7%
20,O=C(CNC(=O)c1ccc(Cl)cc1Cl)OC1CCCCC1=O (stereo not given),inactive: -10.7%
